According to PubChem BioAssay AID2685 (National Center for Advancing Translational Sciences (NCATS), 2010):
This is one part of the list. Shown are side measurements of this screen, not its main read-out; they come without a call. Most of these compounds were active or inconclusive in the main read-out, so they are no random draw. The note in brackets gives the kind of curve behind each potency; many fits are weak.

Test: qHTS Assay for Lipid Storage Modulators in Drosophila S3 Cells;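 as to cell number change: cells counted by Cell Tracker Red CMTPX staining in the red channel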
Settings: BODIPY lipid droplet fluorescence, 18-24 h; for cell number change: measured here: cell count max response, cells fed with added oleic acid
Procedure, shortened: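 Drosophila S3 cells got compounds at several concentrations plus oleic acid (400 uM solution). Laser-scanning cytometry with 488 nm excitation read lipid droplets at 500-530 nm and cells at 575-640 nm. Percent activity was relative to 20 uM Triacsin C.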

[1] = measured here: lipid fluorescence (Fed channel) AC50, cells fed with added oleic acid
[2] = measured here: cell number channel AC50, cells fed with added oleic acid

| SMILES | cell number change [%] | AC50 [1] | AC50 [2] |
| --- | --- | --- | --- |
| CCCc1cc(=O)oc2c(CNc3ccc(OCC)cc3)c(O)ccc12 | 23.2 | 0.651 µM [rising, partial curve, poor fit] |  |
| C/C(=N\NC(=O)c1ccccc1F)c1ccccn1 |  |  | 3.26 µM [falling, single point] |
| CCC1SC(CC)C(=O)N(CC(=O)Nc2ccc3c(c2)OCO3)C1=O (stereo not given) | 16.3 | 2.06 µM [rising, full curve] |  |
| CS(=O)(=O)c1nc(S(=O)(=O)c2ccc(Cl)cc2)c(N2CCCCC2)s1 | -31.9 |  | 29.1 µM [falling, single point] |
| CCCn1c(N2CCN(Cc3ccc(Cl)cc3)CC2)nc2ccccc21 | -40 | 6.51 µM [falling, full curve] | 32.6 µM [falling, single point] |
| Cc1ccccc1-c1nc(S(=O)(=O)c2ccc(Cl)cc2)c(NCCN2CCOCC2)o1 | -1.16 |  |  |
| CCOc1cc(N2CCOCC2)c(OCC)cc1NC(=O)CN1CCSC1=O | 0.779 | 0.082 µM [falling, full curve, poor fit] |  |
| CCc1noc(C)c1C(=O)Nc1cccc2ncccc12 |  | 2.06 µM [falling, partial curve] |  |
| O=C(NCc1ccncc1)NC12CC3CC(CC(C3)C1)C2 | 17.7 | 0.366 µM [rising, full curve, poor fit] |  |
| COCCN1CCN(C(=O)C2CCC(=O)N(CCc3ccc(Cl)cc3)C2)CC1 (stereo not given) | -14.4 | 29.1 µM [rising, single point] |  |
| CC1CCCCN1C(=O)CSc1nnc(-c2ccccc2O)o1 (stereo not given) | 13.9 | 2.91 µM [rising, single point] |  |
| CCN=C1SC(C(=O)Nc2cccc(Br)c2)CC(=O)N1CC (stereo not given) | -53.3 |  | 3.66 µM [falling, full curve] |
| Cc1ccc2c(c1)N(CC(=O)NCCCN1CCCCC1)C(=O)c1cccnc1O2 | -19 | 2.06 µM [rising, partial curve] |  |
| CCOC(=O)Cn1cc(/C=C(/C#N)C(=O)NC(C)C)c2ccccc21 | 8.98 | 32.6 µM [rising, single point] |  |
| CCc1ccc(-c2ccc(C(=O)O)cc2)nc1 | -18.9 | 3.26 µM [falling, single point] | 3.26 µM [falling, single point] |
| CCn1c(=O)c2sccc2n2c(CCCC(=O)NCc3cccnc3)nnc12 | 1.91 |  |  |
| CCN(CC)C1CCN(C(=O)c2cc(COc3cccc4cccnc34)on2)C1 (stereo not given) | 17.5 | 29.1 µM [rising, single point] |  |
| COc1ccc(O)c(CN2CCCC(C(=O)Nc3cccc(-n4cccn4)c3)C2)c1 (stereo not given) | -14.4 | 29.1 µM [rising, single point] |  |
| Cc1cc(C)n(CC(O)COc2ccc(Cl)cc2)n1 (stereo not given) | 2.92 | 6.51 µM [rising, single point] |  |
| O=C1NC(=Nc2ccccc2)S/C1=C/c1cccnc1 | 5.92 |  |  |
| COc1ccc(-c2noc(CCCC(=O)NC3CCCCC3)n2)cc1OC | 23.7 |  |  |

Some values from above.
cell number change [%] with Cc1ccc2c(c1)N(CC(=O)NCCCN1CCCCC1)C(=O)c1cccnc1O2 reads -19
cell number change [%] with COc1ccc(-c2noc(CCCC(=O)NC3CCCCC3)n2)cc1OC reads 23.7
cell number change [%] with CCOC(=O)Cn1cc(/C=C(/C#N)C(=O)NC(C)C)c2ccccc21 reads 8.98
AC50 [1] with COCCN1CCN(C(=O)C2CCC(=O)N(CCc3ccc(Cl)cc3)C2)CC1 (stereo not given) reads 29.1 µM [rising, single point]

Carrying on:

| SMILES | cell number change [%] | AC50 [1] | AC50 [2] |
| --- | --- | --- | --- |
| O=C(CN1C(=O)NC2(CCCCCC2)C1=O)Nc1ccc(Cl)cc1Cl | 2.95 |  |  |
| C/C(CC(=O)Nc1cccc2c1CCCC2)=N\NC(=O)Cc1ccccc1 | 20 |  | 0.103 µM [rising, full curve, poor fit] |
| O=C(Nc1cccnc1)c1cnc2ccccc2n1 | -43.9 |  | 16.4 µM [falling, partial curve, poor fit] |
| COCCn1c(C)cc(/C=C2/SC(=O)N(CC(=O)N3CCCC3)C2=O)c1C | -34.3 | 6.51 µM [falling, single point] |  |
| CSc1nc(-c2ccc(Cl)cc2)nn1C(=O)c1ccco1 | -124 |  | 29.1 µM [falling, single point] |
| O=c1[nH]cnc2scc(-c3cccs3)c12 | 0.956 | 2.31 µM [falling, partial curve, poor fit] |  |
| COc1cccc(-c2nc(OC(C)C)c3ccccc3n2)c1 | -6.98 |  |  |
| COc1ccc(NC(=O)NC(C)c2ccncc2)cc1OC (stereo not given) | 55.2 |  | 18.4 µM [rising, single point] |
| CCOc1ccc(-n2c(SCC(=O)Nc3ccc4c(c3)OCO4)nc3c(c2=O)SCC3)cc1 |  | 0.366 µM [rising, full curve] | 0.184 µM [rising, full curve] |
| Cc1cc(-c2nnc(SCC(=O)Nc3ccc(F)c(F)c3)n2N)n[nH]1 | 0.708 | 6.51 µM [falling, single point] |  |
| Cc1onc(C(=O)Nc2cccc(C(F)(F)F)c2)c1[N+](=O)[O-] | -30.7 | 29.1 µM [falling, single point] | 18.4 µM [falling, single point] |
| CCOC(=O)c1nnc(-c2ccccc2)o1 | 0.781 | 0.164 µM [falling, single point] |  |
| O=C(Nc1ccccc1N1CCOCC1)c1cccc(NS(=O)(=O)c2ccc(F)c(F)c2)c1 | -29.4 |  |  |
| CC(=O)Nc1ccc(NC(=O)CSc2nnc(C)c(=O)[nH]2)cc1 | -45.8 | 16.4 µM [falling, single point] | 14.6 µM [falling, single point] |
| O=C(NC(Cc1ccccc1)C(=O)O)/C(=C\c1ccccc1F)NC(=O)c1ccccc1 (stereo not given) | -34.3 |  | 7.31 µM [falling, partial curve, poor fit] |
| CCOc1ccc(Nc2cc(=O)[nH]c(=O)[nH]2)cc1 | 9.79 |  |  |
| CCCn1nnc(NC(=O)c2cc(Br)ccc2OC)n1 | 1.28 | 8.2 µM [rising, partial curve] |  |
| Cc1ccc(C(=O)NNC(=O)C2CCN(C(=O)OC(C)(C)C)CC2)cc1 |  | 6.51 µM [falling, single point] |  |
| COc1cc(CN(C)c2ncnc3sccc23)ccc1OC(F)F | -14.1 |  |  |
| COc1ccc(NS(=O)(=O)c2cc(Cl)ccc2Cl)cc1S(=O)(=O)N1CCCCC1 | 15.3 |  |  |
| CC(C)c1ccc(S(=O)(=O)N(C)C2(C)CCS(=O)(=O)C2)cc1 (stereo not given) | 7.02 | 0.00461 µM [rising, full curve, poor fit] |  |
